# From PubChem BioAssay AID504834 (National Center for Advancing Translational Sciences (NCATS), 2011)
# Out of some 320,000 compounds screened, about 22,000 (6.9%) were called active. The inconclusive results got no clear call from the source; some entries with a clear call stand among them for comparison. Calls come from the whole dose curve; as a rule, active = well fitted inhibition curve with a large enough effect; inconclusive = small, poorly fitted or top-dose-only effect, or another doubt; inactive = no such curve, though single readings can be large or run the other way. Potencies beside an inconclusive call are fits to weak or partial responses and may not hold up.
# Experiment: Primary qHTS for delayed death inhibitors of the malarial parasite plastid, 96 hour incubation
# Conditions: P. falciparum luciferase reporter growth; series mostly up to 28.7 µM; activity change, negative = inhibition: at the top concentration
# Outline: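 P. falciparum expressing integrated firefly luciferase, in erythrocytes at 2% hematocrit, 0.05% parasitemia, incubated with compounds 96 h at 37 C, 5% CO2. Growth inhibition read as loss of luminescence; two-generation exposure targets delayed-death apicoplast inhibitors.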
# % is set by controls: 0 for no effect and ±100 for the full control effect; potency is the fitted concentration of half-maximal effect.
Compound,Potency,"activity change, negative = inhibition"
CCCN(Cc1ccc(C)cc1)C(=O)c1ccc(CNS(=O)(=O)c2ccc(C(C)=O)cc2)cc1,"inconclusive: 18.5 µM [inhibitor, single point]",
COc1cc(NC(=O)C2CCC(CNS(=O)(=O)c3csc(C(N)=O)c3)CC2)cc(OC)c1 (centres undefined),"inconclusive: 18.5 µM [inhibitor, single point]",
COc1cc(OC)nc(NC(=O)C(C)C)n1,"inconclusive: 0.738 µM [inhibitor, partial curve, poor fit]",
CCOCCn1c(C)c(C(=O)OCC)c2cc(O)c3ccccc3c21,active: 3.7 µM,
COc1ccc(C2C(C(=O)N3CC(C)CC(C)C3)c3ccccc3C(=O)N2C)cc1 (centres undefined),"inconclusive: 7.38 µM [inhibitor, partial curve, poor fit]",
CC(Nc1nc(N2CCCCC2)nc2ccccc12)c1ccccc1 (centres undefined),"inconclusive: 5.22 µM [inhibitor, partial curve, poor fit]",
O=C(NCc1ccccc1)c1onc(CSc2ccccn2)c1C(=O)NCc1ccccc1,,inactive: -16.4%
CCN(CC)S(=O)(=O)c1ccc2oc(Nc3ccccc3)nc2c1,"inconclusive: 14.7 µM [inhibitor, single point]",
COc1cc(/C=N/NC(=O)CN2CCCCC2)ccc1OCc1ccccc1,,inactive: 3.3%
CCOc1ccc(N(CC(=O)Nc2ccc(Br)cc2)S(C)(=O)=O)cc1,"inconclusive: 18.5 µM [inhibitor, single point]",
CCN(CC)S(=O)(=O)c1ccc(Cl)c(NC(=O)c2cc(Cl)ccc2Cl)c1,"inconclusive: 18.5 µM [inhibitor, single point]",
CCCCCOC(=O)C1C2C=CC3(CN(c4ccccc4C)C(=O)C13)O2 (centres undefined),"inconclusive: 7.38 µM [inhibitor, partial curve, poor fit]",
COC(=O)CCC(=O)NNC(=O)c1cccc(Br)c1,"inconclusive: 10.4 µM [inhibitor, single point]",
O=C1CCCC(=NCc2ccco2)C1,"inconclusive: 9.28 µM [inhibitor, single point]",
Cc1cc(C)c[n+](-c2nc3ccccc3nc2C(=C=[N-])C#N)c1,"inconclusive: 18.5 µM [inhibitor, single point]",
COc1cc(NS(=O)(=O)c2ccc(NC(=S)NC(=O)c3cccs3)cc2)nc(OC)n1,,inactive: -8.18%
Cc1ccc2nc(C)c3c(c2c1)OC(C(C)(Cl)Br)C3 (centres undefined),"inconclusive: 10.4 µM [inhibitor, single point]",
Nc1ccn(Cc2ccccc2)n1,"inconclusive: 0.0029 µM [inhibitor, full curve, poor fit]",
COC(=O)C1(C)NC(c2ccc(F)cc2)C2C(=O)N(c3ccccc3)C(=O)C21 (centres undefined),"inconclusive: 14.7 µM [inhibitor, single point]",
CN1C(=O)/C(=C\c2cc(N=Nc3ccccc3)ccc2O)SC1=S,"inconclusive: 10.4 µM [inhibitor, partial curve, poor fit]",
O=C(COC(=O)c1ccc(O)cc1)Nc1ccccc1-c1ccccc1,"inconclusive: 7.38 µM [inhibitor, partial curve, poor fit]",
CC(C)C(C(=O)Nc1sc2c(c1C#N)CCCCC2)N1C(=O)c2ccccc2C1=O (centres undefined),"inconclusive: 10.4 µM [inhibitor, partial curve]",
CCN1C(=O)CS/C1=C(\C#N)S(=O)(=O)c1ccccc1,,inactive: 3.27%

Compound,Potency,"activity change, negative = inhibition"
COc1ccc(CCN2CC(C(=O)NCCc3ccccc3C(F)(F)F)CCC2=O)cc1 (centres undefined),,inactive: 4.09%
O=C(NCCc1ccco1)c1nn(Cc2ccccc2)c(=O)c2ccccc12,"inconclusive: 0.0059 µM [inhibitor, full curve, poor fit]",
Cc1ccccc1N1CCN(C2CCCN(C(=O)CCC3(C)CC3)C2)CC1 (centres undefined),"inconclusive: 18.5 µM [inhibitor, single point]",
COc1cc(C2c3cc4c(cc3C(O[C@@H]3OC5COC(c6cccs6)OC5C(O)C3O)C3COC(=O)C23)OCO4)cc(OC)c1O (some centres undefined),active: 0.478 µM,
CCOCCCn1c(C)nc2c(c1=O)c1nc3ccccc3nc1n2-c1ccc(C)cc1,"inconclusive: 8.28 µM [inhibitor, partial curve, poor fit]",
CCOc1ccccc1NC(=S)N(CCCN1CCOCC1)Cc1cn(C)c2ccccc12,"inconclusive: 0.131 µM [inhibitor, full curve, poor fit]",
COc1ccc2ccccc2c1/C=N/NC(=O)c1ccc(C)nc1,"inconclusive: 20.8 µM [inhibitor, partial curve, poor fit]",
O=C(CN1CCCCCC1)N/N=C/c1ccc2ccccc2c1,"inconclusive: 11.7 µM [inhibitor, partial curve]",
Brc1ccc(-c2nc(-c3ccncc3)no2)o1,"inconclusive: 18.5 µM [inhibitor, single point]",
Cc1ccccc1C(=O)Nc1ccc(S(=O)(=O)N2CCOCC2)cc1,,inactive: 15.5%
COc1ccc(-c2csc(N=C(N)N)n2)cc1,"inconclusive: 16.5 µM [inhibitor, single point]",
C#CCOCCOCCOCCNc1nc(N2CCN(C(=O)[C@H](CCC(=O)O)n3cc(C(N)CO)nn3)CC2)nc(N2CCN(C(=O)[C@H](CCC(=O)O)n3cc(C(N)CC(C)C)nn3)CC2)n1 (some centres undefined),"inconclusive: 6.57 µM [inhibitor, partial curve, poor fit]",
Oc1ccccc1C1CC(c2cccs2)=NC(c2cccc(Br)c2)N1 (centres undefined),active: 2.62 µM,
CCN1CCN(S(=O)(=O)c2cc(OC)ccc2OC)CC1,"inconclusive: 0.0185 µM [inhibitor, full curve, poor fit]",
NC(=O)COC(=O)c1ccccc1Oc1ccccc1,,inactive: 15.7%
O=C(COC(=O)c1ccc(Cl)c(S(=O)(=O)N2CCCC2)c1)NCc1cccs1,"inconclusive: 16.5 µM [inhibitor, partial curve, poor fit]",
CC(=O)N/C(=C\c1ccccc1)C(=O)OCC(=O)NC1CCCC1,,inactive: -12.7%
COc1ccc(C2(c3ccc(OC)cc3)NC(=O)N(CC(=O)Nc3ccc(C(=O)N(C)C)cc3)C2=O)cc1,"inconclusive: 14.7 µM [inhibitor, single point]",
Nc1c(C(=O)c2ccccc2)sc2nsc(SCCN3CCCC3)c12,"inconclusive: 18.5 µM [inhibitor, single point]",
O=C(O)CCS(=O)(=O)c1nc(-c2cccs2)cc(C(F)(F)F)n1,"inconclusive: 16.5 µM [inhibitor, single point]",
O=C1NC2(CCN(Cc3ccccc3)CC2)Oc2ccccc21,"inconclusive: 11.7 µM [inhibitor, single point]",
Cc1ccccc1NC(=O)c1c(C)nc(SCC(=O)OCc2ccccc2)c(C#N)c1-c1ccc(F)cc1,"inconclusive: 14.7 µM [inhibitor, single point]",
COc1ccc2c(Cl)c(-c3nnc(SCC(N)=O)n3C)sc2c1,,inactive: -0.732%

# 3 compounds picked at random from the list so far:
Compound,Potency,"activity change, negative = inhibition"
O=C1NC2(CCN(Cc3ccccc3)CC2)Oc2ccccc21,"inconclusive: 11.7 µM [inhibitor, single point]",
Nc1c(C(=O)c2ccccc2)sc2nsc(SCCN3CCCC3)c12,"inconclusive: 18.5 µM [inhibitor, single point]",
COc1ccc2c(Cl)c(-c3nnc(SCC(N)=O)n3C)sc2c1,,inactive: -0.732%

# (listing goes on)

Compound,Potency,"activity change, negative = inhibition"
CC(C)CN(C(=O)CN1C(=O)NC2(CCc3ccccc32)C1=O)C1CCS(=O)(=O)C1 (centres undefined),,inactive: -0.596%
CCOc1ccc(OCCCCN2CCCC2)cc1,,inactive: 37.6%
O=[N+]([O-])CC(=Nc1ccc(Cl)cc1)N/N=C\c1oc(O)c2ccccc12,,inactive: 43.9%
CCC1C(=O)CC(c2ccccc2)NC1c1ccccc1 (centres undefined),"inconclusive: 14.7 µM [inhibitor, partial curve]",
COC(=O)CSc1nc2ccc(N)cc2s1,,inactive: 3%
COc1ccccc1/C=C(/CC(=O)NCc1ccc2c(c1)OCO2)c1nc2ccccc2s1,"inconclusive: 9.28 µM [inhibitor, single point]",
Cc1cc(Oc2ccc(=O)n(C)n2)nc(SCC(N)=O)n1,,inactive: 18.8%
O=C(CCC1CCCN(C(=O)CCCc2ccccc2)C1)N1CCN(c2ccccn2)CC1 (centres undefined),"inconclusive: 11.7 µM [inhibitor, partial curve]",
CN(C)C(=O)C1Cc2ccccc2CN1S(=O)(=O)c1ccc(F)cc1 (centres undefined),active: 4.15 µM,
c1cc2c3c(cccc3c1)C(N1CCCCC1)=N2,active: 11.7 µM,
COC(=O)/C=C1/S/C(=N/NC(=O)c2ccccc2C)NC1=O,"inconclusive: 4.15 µM [inhibitor, single point]",
C/C(=N\NC(=O)c1ccc(NS(=O)(=O)c2cccs2)cc1)c1ccccn1,active: 11.7 µM,
COc1ccc2nc(SCC(=O)c3ccco3)[nH]c2c1,,inactive: 191%
COC(=O)c1ccc(NC(=O)CCCCCn2nnc3ccccc3c2=O)cc1,active: 3.29 µM,
CCOC(=O)c1c(NC(=O)CSc2cn(CC)c3ccccc23)sc2c1CCC2,"inconclusive: 13.1 µM [inhibitor, single point]",
CC/C(=N\NC(=S)Nc1cc(C)ccc1C)c1ccc(OC(F)F)cc1,"inconclusive: 14.7 µM [inhibitor, partial curve, poor fit]",
Cc1nnc(NC(=O)Nc2cccc(Cl)c2)s1,,inactive: -23%
CC(=O)Nc1ccc(NC(=O)COC(=O)CCNS(=O)(=O)c2c(Cl)cccc2Cl)cc1,,inactive: 34.6%
C=CCn1cnc2sc(C(=O)Nc3ccccc3OC)c(C)c2c1=O,"inconclusive: 11.7 µM [inhibitor, partial curve]",
Clc1ccc(Oc2cnc3ccccc3n2)cc1,,inactive: 53.7%
COc1cc2c(cc1OC)CN(c1nc(CN3CCOCC3)nc3sc4c(c13)CCCC4)CC2,active: 1.65 µM,
CSc1cccc(NC(=S)N2CCC(N(C)C3CCCCC3)CC2)c1,"inconclusive: 18.5 µM [inhibitor, single point]",
Cc1cc(NC(=O)CCC(=O)N(Cc2ccco2)C2(C(=O)NC3CCCCC3)CCCC(C)C2)no1 (centres undefined),"inconclusive: 18.5 µM [inhibitor, single point]",
